Measured values from article PMC7606486, “CFAP45 deficiency causes situs abnormalities and asthenospermia by disrupting an axonemal adenine nucleotide homeostasis module” (Nature Communications, 2020).

Biological target: T1, NTAP-AK8 (UniProt Q96MA6)
T1 sequence: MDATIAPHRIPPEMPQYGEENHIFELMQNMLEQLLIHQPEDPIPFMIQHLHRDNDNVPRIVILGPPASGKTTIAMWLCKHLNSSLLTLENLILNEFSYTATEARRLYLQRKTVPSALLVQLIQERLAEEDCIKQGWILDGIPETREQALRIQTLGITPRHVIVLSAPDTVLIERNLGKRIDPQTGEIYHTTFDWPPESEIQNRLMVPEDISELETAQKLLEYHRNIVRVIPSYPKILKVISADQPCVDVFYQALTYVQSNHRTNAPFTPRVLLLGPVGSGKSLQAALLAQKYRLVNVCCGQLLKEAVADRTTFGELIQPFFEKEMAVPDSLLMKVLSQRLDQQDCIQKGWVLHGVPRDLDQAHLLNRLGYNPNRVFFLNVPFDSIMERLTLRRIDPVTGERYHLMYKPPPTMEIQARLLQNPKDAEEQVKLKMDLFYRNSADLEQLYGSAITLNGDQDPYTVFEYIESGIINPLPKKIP
Assay: tandem affinity purification (TAP); co-expression in HEK293 cells, TAP of recombinant AK8, standard 150 mM NaCl lysis buffer

In the case of “recombinant, epitope-tagged CFAP52 (552 amino acid isoform) (human)”, the binding is reported as “binds”.

No constants are given. Whether binding was seen depends on the method and setting. Binding calls can cover weak binding; strength is not graded here.
